From article PMC7819943, “Rice protein-binding microarrays: a tool to detect cis-acting elements near promoter regions in rice”
The other results are listed elsewhere or left out.

Amino acid sequences for entries named in this document (tags omitted).
UniProt Q0JBA9, entry or part of it: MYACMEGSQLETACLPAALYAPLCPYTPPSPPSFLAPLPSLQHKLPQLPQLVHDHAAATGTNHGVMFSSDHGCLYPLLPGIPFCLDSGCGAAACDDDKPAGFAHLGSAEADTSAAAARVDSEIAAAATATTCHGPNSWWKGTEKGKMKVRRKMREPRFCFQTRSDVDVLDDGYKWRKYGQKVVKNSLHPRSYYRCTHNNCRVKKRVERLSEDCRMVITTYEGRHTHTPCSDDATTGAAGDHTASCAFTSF

Each sequence was assayed against OsWRKY34 (Oryza sativa, UniProt Q0JBA9 1-250) (assay: protein-binding microarray (RPBM); PBS, 2% BSA, 51.3 ng/ul salmon testes DNA, 50 uM zinc acetate, 200 nM TF, 25 C, 1 h; high values mean tight binding). Settings: protein: recombinant; tags: N-terminal polyhistidine and DsRed monomer fusion (pET32a); label: CyDye5-dUTP incorporated in the synthesized complementary strand; 3' TTTTT single-stranded linker to array surface; dsDNA, one strand shown.
Procedure, shortened: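 Binding signal is reported as fluorescence intensity per feature (arbitrary units) from an Axon 4000B scanner. Incubation used 200 nM of each Ni–NTA-purified, N-terminally polyhistidine- and DsRed-fused transcription factor from E. coli BL21-CodonPlus on a double-stranded custom Agilent array for 1 h at 25 °C, with 50 µM zinc acetate in the buffer, followed by washing.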

How did the binding signal turn out when “GGCGCCCGTCCCGTCTCGTCTTTGTCCCACACGCGCAAGTCGGAGTCACCTAGTGCAG” was run?
Its binding signal is 9690 fluorescence intensity (a.u.).

“CCCTCATCATTTTCCCATGATTTTTCCCTTCAATTCTTCACGGAGTCACCTAGTGCAG” was tested. Which binding signal did it give?
Its binding signal is 9430 fluorescence intensity (a.u.).

With “TAACCAACCCCATCACCATCCCATTTTTTCGGATCTGAGACGGAGTCACCTAGTGCAG” as the sequence, how does the binding signal read?
The binding signal was 8230 fluorescence intensity (a.u.).

With “ATGGAGATGTTATTTGTAGCGCTGCCCTTTTACTATTCGCCGGAGTCACCTAGTGCAG” as the sequence, how does the binding signal read?
Its binding signal is 10700 fluorescence intensity (a.u.).

How did the binding signal turn out when “GCGTCCTCTCTCTCTCTCTCTCGATCCACCACCACCCATGCGGAGTCACCTAGTGCAG” was run?
The binding signal was 8980 fluorescence intensity (a.u.).

With “ATAATTCGTTCGTGCCTTTAATTTGGACTCAGTTGGTTTGCGGAGTCACCTAGTGCAG” as the sequence, how does the binding signal read?
The binding signal was 8530 fluorescence intensity (a.u.).

Which binding signal does the source give for “TCTCTCTCTCTCTTTGTGTCTTTCTCAAGGGAGAATTAACCGGAGTCACCTAGTGCAG” here?
The binding signal was 8690 fluorescence intensity (a.u.).

Which binding signal does the source give for “CCATCACGGCAGCCACTCAGACGTCCTCCCCGCTTTATCACGGAGTCACCTAGTGCAG” here?
Its binding signal is 11000 fluorescence intensity (a.u.).

Which binding signal does the source give for “GAGGGAAGTGTCATCTTCGTCCTGGCATCCTTCAATTCCACGGAGTCACCTAGTGCAG” here?
The binding signal was 8430 fluorescence intensity (a.u.).

Which binding signal does the source give for “CATGGTCAATCTACTCGTTAACGTACATTCACGGTTATTTCGGAGTCACCTAGTGCAG” here?
Its binding signal is 8960 fluorescence intensity (a.u.).

“TTTGCACACGGGTGACTCGTCTCTTTGTACTCACTCTCTCCGGAGTCACCTAGTGCAG” was tested. Which binding signal did it give?
The binding signal was 9840 fluorescence intensity (a.u.).

“TCCTGTTCGTTGACTTCAACCATGTGCCGATCGAACCGTGCGGAGTCACCTAGTGCAG” was tested. Which binding signal did it give?
The binding signal was 10600 fluorescence intensity (a.u.).

For “GCAGCAACATGACAACTCTTTACTCCTTCTCGCTAGCTTTCGGAGTCACCTAGTGCAG”, which binding signal is on record?
The binding signal was 8760 fluorescence intensity (a.u.).

How did the binding signal turn out when “TGCTTGCAAGCAATGTTGTGTGTAGTGGCTTTGCATTGACCGGAGTCACCTAGTGCAG” was run?
The binding signal was 9980 fluorescence intensity (a.u.).

Which binding signal does the source give for “TTCTCTTCTTCTTCTTGTTGCACACCGCCGGCCGGCCGTGCGGAGTCACCTAGTGCAG” here?
The binding signal was 8260 fluorescence intensity (a.u.).

How did the binding signal turn out when “ACCATGTTATTATCACTGGTCATCCACTCATTGAACGTGACGGAGTCACCTAGTGCAG” was run?
Its binding signal is 8270 fluorescence intensity (a.u.).

With “ATTTTGGTTATGCTGGATATATATATACTGTATTAATTTACGGAGTCACCTAGTGCAG” as the sequence, how does the binding signal read?
The binding signal was 8350 fluorescence intensity (a.u.).

For “AAAACTCTAAATGGCTATCTACATACTACCTTCGTTTTTTCGGAGTCACCTAGTGCAG”, which binding signal is on record?
Its binding signal is 10100 fluorescence intensity (a.u.).

With “TCTTGTGGGTCTATAATCTTGTATGTAATGCATTAAATTCCGGAGTCACCTAGTGCAG” as the sequence, how does the binding signal read?
Its binding signal is 10400 fluorescence intensity (a.u.).

For “TCTACGGGTATCCCGCGTCGACAATATTCCCATGCATTTACGGAGTCACCTAGTGCAG”, which binding signal is on record?
Its binding signal is 10900 fluorescence intensity (a.u.).

For “GGTCATCTTCTCCCTCGCCGGCGAGCGCTTATATAGTCGTCGGAGTCACCTAGTGCAG”, which binding signal is on record?
Its binding signal is 8460 fluorescence intensity (a.u.).

For “CTTCCGTTCCGTCTCGTTGTTGTTGCTGCCGCAGCAGCGCCGGAGTCACCTAGTGCAG”, which binding signal is on record?
Its binding signal is 8740 fluorescence intensity (a.u.).

For “CCGGTTCGGTTGGCCGTTTGACCGGTCGCCGCGTCGCTATCGGAGTCACCTAGTGCAG”, which binding signal is on record?
Its binding signal is 9000 fluorescence intensity (a.u.).

How did the binding signal turn out when “CTGGTTGGCTTAGTTATTGTGATTCGATCCTACATTTCCGCGGAGTCACCTAGTGCAG” was run?
The binding signal was 11100 fluorescence intensity (a.u.).

For “TTCCGTTTGCAAACATATCGTTGGGATTATTCCTCGTCAACGGAGTCACCTAGTGCAG”, which binding signal is on record?
Its binding signal is 8590 fluorescence intensity (a.u.).

For “ATGTCAGCCTCACTCCTCTCTTCTTCCCTCTCCCTTCTCTCGGAGTCACCTAGTGCAG”, which binding signal is on record?
The binding signal was 9340 fluorescence intensity (a.u.).

Which binding signal does the source give for “GATGGGAGGGGTGGTGGTTGAATACGCGTGACAGTAGGGGCGGAGTCACCTAGTGCAG” here?
Its binding signal is 12100 fluorescence intensity (a.u.).

Which binding signal does the source give for “CGGCCCAAACCATCGCTGCCGCCAGCTCGTGCCGCACAATCGGAGTCACCTAGTGCAG” here?
The binding signal was 9040 fluorescence intensity (a.u.).

“GGTCGCTATTTTCTTCCTTTTCCACACGGACCGAGCACCTCGGAGTCACCTAGTGCAG” was tested. Which binding signal did it give?
The binding signal was 8730 fluorescence intensity (a.u.).

“ATCAATATCTGGGAGGGATTTCGAATGGTCTTTGATAAATCGGAGTCACCTAGTGCAG” was tested. Which binding signal did it give?
The binding signal was 8380 fluorescence intensity (a.u.).

For “CACCGCGATGACTCTGCCTACTCTCTCCGTGCCTCGCTCCCGGAGTCACCTAGTGCAG”, which binding signal is on record?
The binding signal was 9270 fluorescence intensity (a.u.).

Which binding signal does the source give for “ACATGTGGGGTTTGTTGTTGGCTCCGCCAGGTTAAACATGCGGAGTCACCTAGTGCAG” here?
Its binding signal is 8720 fluorescence intensity (a.u.).

For “CCGACATCGCGCGCGTCTCCGCCATGCTGGCGCCTTCACCCGGAGTCACCTAGTGCAG”, which binding signal is on record?
The binding signal was 12800 fluorescence intensity (a.u.).

How did the binding signal turn out when “TCACTTTTCATCCACTCTCCCATAATATCATCTTTCCGTTCGGAGTCACCTAGTGCAG” was run?
The binding signal was 9170 fluorescence intensity (a.u.).

With “TACGCAAAAACTTTTCATCCTGTCACATCGAATGTTTGGACGGAGTCACCTAGTGCAG” as the sequence, how does the binding signal read?
Its binding signal is 8300 fluorescence intensity (a.u.).

For “TTATTCCACTCCCAGCTGGTGTTGCACATTGGTTCTACAACGGAGTCACCTAGTGCAG”, which binding signal is on record?
The binding signal was 8880 fluorescence intensity (a.u.).

How did the binding signal turn out when “ATCATTTTTTTCGATTATTGGTAGTATCATTAGTTTTTATCGGAGTCACCTAGTGCAG” was run?
The binding signal was 10400 fluorescence intensity (a.u.).

With “TGATTTTTCCGCTATTTTCTCCCACGGTTTCCACGTCGCGCGGAGTCACCTAGTGCAG” as the sequence, how does the binding signal read?
Its binding signal is 9360 fluorescence intensity (a.u.).

How did the binding signal turn out when “AACAATTAGCGATCTCCCACTTCTAAACAGCGGTTTTTTTCGGAGTCACCTAGTGCAG” was run?
Its binding signal is 8180 fluorescence intensity (a.u.).

For “CCTTCACTCGCCCGTGTCTTTAAAACCGGGTCACGCGCGTCGGAGTCACCTAGTGCAG”, which binding signal is on record?
The binding signal was 8190 fluorescence intensity (a.u.).

For “TCATGGTATTTATTTGGTTTCCACTAACCCTGTTCATGGTCGGAGTCACCTAGTGCAG”, which binding signal is on record?
Its binding signal is 11700 fluorescence intensity (a.u.).

With “CTCTGTGGGGCTTTGGACGGCCGGCGGTGGGGACGAGGTCCGGAGTCACCTAGTGCAG” as the sequence, how does the binding signal read?
Its binding signal is 8080 fluorescence intensity (a.u.).
